PubChem BioAssay AID1259308 – NCATS, 2017
Screen: 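Genes whose loss raises luciferase production in HEK293 cells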 (primary screen). Cells: human HEK293 embryonic kidney cells stably expressing firefly luciferase (HEK-CMV-Luc2-Hygro). Reagent: single siRNA against human genes, 0.8 pmol siRNA per well. Time to read-out: 72 h. Measurement: 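Luciferase light (ONE-Glo) measured on one replicate plate set and viability (CellTiter-Glo) on the other, scaled to a negative control siRNA, with robust z-scores and luciferase per cell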. Direction: total luciferase, z-score and total luciferase, % of control: higher = more reporter protein produced; luciferase per cell, z-score: higher = more reporter output per viable cell; viable cells, % of control: higher = more viable cells. Call rule: 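Active when the median/MAD z-score for overall luciferase is greater than 3; a gene was taken forward for validation with new siRNAs if at least two of its three siRNAs passed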. Calls: active = raised luciferase; inactive = no rise.
Shown is a random part of about 59,000 reagents tested. About 1,510 of all reagents (2.6%) were called active. 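Calls use total luciferase alone and ignore viability, so some active siRNAs may act by altering cell number.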 Reagents against one gene are numbered here. No sequences are given here.

no.	gene symbol	reagent no.	total luciferase, z-score	total luciferase, % of control	luciferase per cell, z-score	viable cells, % of control	Outcome
1	SKAP2 (src kinase associated phosphoprotein 2)	1	-0.451	72.9	-0.332	88.9	inactive
2	SKAP2 (src kinase associated phosphoprotein 2)	2	0.18	85.5	-0.0473	96.7	inactive
3	SKAP2 (src kinase associated phosphoprotein 2)	3	-0.439	73.2	-0.818	101	inactive
4	MYH7B (myosin heavy chain 7B)	1	0.423	90.3	0.61	85.9	inactive
5	MYH7B (myosin heavy chain 7B)	2	-1.17	58.6	-1.64	101	inactive
6	MYH7B (myosin heavy chain 7B)	3	-0.201	77.9	-0.422	97.3	inactive
7	MXRA8 (matrix remodeling associated 8)	1	0.94	101	0.652	94.7	inactive
8	MXRA8 (matrix remodeling associated 8)	2	3.1	143	1.45	110	active
9	MXRA8 (matrix remodeling associated 8)	3	-1.78	46.5	-1.29	73	inactive
10	FAXDC2 (fatty acid hydroxylase domain containing 2)	1	0.198	85.8	0.00488	95.8	inactive
11	FAXDC2 (fatty acid hydroxylase domain containing 2)	2	0.365	89.2	0.648	84	inactive
12	FAXDC2 (fatty acid hydroxylase domain containing 2)	3	2.05	123	2.38	73.2	inactive
13	NHLH1 (nescient helix-loop-helix 1)	1	3.47	151	2.88	79.1	active
14	NHLH1 (nescient helix-loop-helix 1)	2	0.923	100	2.3	61.1	inactive
15	NHLH1 (nescient helix-loop-helix 1)	3	0.338	88.6	-0.0389	100	inactive
16	PLIN2 (perilipin 2)	1	0.638	94.6	0.705	87.8	inactive
17	PLIN2 (perilipin 2)	2	0.632	94.5	0.241	99.1	inactive
18	PLIN2 (perilipin 2)	3	-0.328	75.4	-0.75	103	inactive
19	DRD1 (dopamine receptor D1)	1	-0.269	76.5	0.0583	84.2	inactive
20	DRD1 (dopamine receptor D1)	2	0.27	87.2	-0.185	102	inactive
21	DRD1 (dopamine receptor D1)	3	0	81.9	-0.204	96.6	inactive
22	PTRH2 (peptidyl-tRNA hydrolase 2)	1	4.58	173	2.21	108	active
23	PTRH2 (peptidyl-tRNA hydrolase 2)	2	-0.117	79.6	-0.396	98.7	inactive
24	PTRH2 (peptidyl-tRNA hydrolase 2)	3	-1.56	50.8	-1.88	93.2	inactive
25	RPL39 (ribosomal protein L39)	1	-2.61	29.9	-2.38	62.5	inactive
26	RPL39 (ribosomal protein L39)	2	-2.34	35.4	-1.24	54.8	inactive
27	RPL39 (ribosomal protein L39)	3	-1.53	51.5	-1.54	86.5	inactive
28	RASSF5 (Ras association domain family member 5)	1	-0.394	74.1	-0.154	86.2	inactive
29	RASSF5 (Ras association domain family member 5)	2	-0.0433	81	-0.0141	90.9	inactive
30	RASSF5 (Ras association domain family member 5)	3	0.465	91.1	-0.207	108	inactive
31	MAGEB17 (MAGE family member B17)	1	-0.644	69.1	-0.108	79.4	inactive
32	MAGEB17 (MAGE family member B17)	2	1.5	112	2.95	57.4	inactive
33	MAGEB17 (MAGE family member B17)	3	-0.148	78.9	0.268	82.2	inactive
34	SAR1B (secretion associated Ras related GTPase 1B)	1	-2.15	39	-3.14	99.7	inactive
35	SAR1B (secretion associated Ras related GTPase 1B)	2	-0.534	71.3	-1.01	104	inactive
36	SAR1B (secretion associated Ras related GTPase 1B)	3	0.703	95.9	0.0663	105	inactive
37	VCL (vinculin)	1	-1.28	56.4	-2.1	109	inactive
38	VCL (vinculin)	2	-0.757	66.8	-0.886	94.3	inactive
39	VCL (vinculin)	3	-0.394	74.1	-0.916	105	inactive
40	RHOJ (ras homolog family member J)	1	1.83	118	0.6	113	inactive
41	RHOJ (ras homolog family member J)	2	1.66	115	1.7	82.1	inactive
42	RHOJ (ras homolog family member J)	3	0.403	89.9	0.114	97.5	inactive
43	ARHGAP22 (Rho GTPase activating protein 22)	1	-0.819	65.6	-0.173	76.7	inactive
44	ARHGAP22 (Rho GTPase activating protein 22)	2	-0.292	76.1	-0.625	100	inactive
45	ARHGAP22 (Rho GTPase activating protein 22)	3	1.01	102	0.801	92.3	inactive
46	ZNF396 (zinc finger protein 396)	1	0.359	89	0.0223	98.9	inactive
47	ZNF396 (zinc finger protein 396)	2	2.45	131	1.95	87.3	inactive
48	ZNF396 (zinc finger protein 396)	3	-1.65	49.1	-1.22	75.7	inactive
49	PITPNM2 (phosphatidylinositol transfer protein membrane associated 2)	1	0.0463	82.8	-0.22	98.1	inactive
50	PITPNM2 (phosphatidylinositol transfer protein membrane associated 2)	2	-2.16	39	-2.02	74.2	inactive
51	PITPNM2 (phosphatidylinositol transfer protein membrane associated 2)	3	0.794	97.7	1.3	77.5	inactive
52	UTP18 (UTP18 small subunit processome component)	1	-0.392	74.1	0.186	78.8	inactive
53	UTP18 (UTP18 small subunit processome component)	2	-1.48	52.4	-1.81	94.1	inactive
54	UTP18 (UTP18 small subunit processome component)	3	-1.01	61.7	-1.63	106	inactive
55	ZNF777 (zinc finger protein 777)	1	0.107	84	-0.286	101	inactive
56	ZNF777 (zinc finger protein 777)	2	-0.566	70.6	-0.875	99.4	inactive
57	ZNF777 (zinc finger protein 777)	3	0.462	91.1	0.296	94.1	inactive
58	PDE4A (phosphodiesterase 4A)	1	0.215	86.2	0.549	83.3	inactive
59	PDE4A (phosphodiesterase 4A)	2	-0.148	78.9	0.141	85	inactive
60	PDE4A (phosphodiesterase 4A)	3	-0.241	77.1	-0.16	89.9	inactive
61	CAMKK1 (calcium/calmodulin dependent protein kinase kinase 1)	1	0.352	88.9	0.789	80.7	inactive
62	CAMKK1 (calcium/calmodulin dependent protein kinase kinase 1)	2	0.231	86.5	0.195	91.8	inactive
63	CAMKK1 (calcium/calmodulin dependent protein kinase kinase 1)	3	-0.738	67.2	-0.555	86.9	inactive
64	ZNF566-AS1 (ZNF566 antisense RNA 1)	1	1.39	109	0.625	104	inactive
65	ZNF566-AS1 (ZNF566 antisense RNA 1)	2	-0.658	68.8	-0.234	81.8	inactive
66	ZNF566-AS1 (ZNF566 antisense RNA 1)	3	0.0931	83.7	-0.00722	93.8	inactive
67	TFEC (transcription factor EC)	1	2.56	133	1.28	106	inactive
68	TFEC (transcription factor EC)	2	-0.212	77.7	-0.225	92.1	inactive
69	TFEC (transcription factor EC)	3	-1.19	58.2	-1.66	101	inactive
70	ITGA8 (integrin subunit alpha 8)	1	0.518	92.2	0.232	96.9	inactive
71	ITGA8 (integrin subunit alpha 8)	2	-0.0274	81.3	-0.158	94.7	inactive
72	ITGA8 (integrin subunit alpha 8)	3	0.606	93.9	-0.18	110	inactive
73	EDN2 (endothelin 2)	1	0.0611	83.1	-0.299	100	inactive
74	EDN2 (endothelin 2)	2	-0.613	69.7	-0.359	85.6	inactive
75	EDN2 (endothelin 2)	3	-0.605	69.8	-0.887	98.6	inactive

Single entries from above.
Under “total luciferase, z-score”, PLIN2 (perilipin 2) #3 is entered as -0.328
Under “viable cells, % of control”, PLIN2 (perilipin 2) #2 is entered as 99.1
FAXDC2 (fatty acid hydroxylase domain containing 2) #2, luciferase per cell, z-score: 0.648
Entry of PTRH2 (peptidyl-tRNA hydrolase 2) #2 in “total luciferase, z-score”: -0.117
